Measurements as given in the supplement of paper PMC5949888.
Most values lie at the floor of the assay. Slopes are relative: functional sequences can read slightly below zero.

These substances were tested on Saccharomyces cerevisiae PS128 hsf1 delta, HSF1(1-493) fusion (assay: growth estimate (transactivation domain function in HSF1 fusion, heat-shock survival) (a.u. (slope of normalised read count over time)); higher = stronger growth at 37°C, i.e. more transactivation activity). Conditions: library: random library.
With YYNTRSLLRER the growth estimate was under -0.25. YYS gave a growth estimate of under -0.25. YYSHTTGVFT showed a growth estimate of under -0.25.
